Some entries share one result that the patent states for a list of compounds. At least one structure is not confirmed: it was looked up by name or label, or the drawing left a doubt.
Key:
Format in all cases: in vivo
Conditions in all cases: 6 days
[1] = system: diamondback moth (Plutella xylostella (L.)); test: Test A: control of diamondback moth on mustard plant, foliar spray
[2] = system: fall armyworm (Spodoptera frugiperda (J. E. Smith)); test: Test B: control of fall armyworm on corn (maize) plant, foliar spray
[3] = system: potato leafhopper (Empoasca fabae (Harris)); test: Test C: control of potato leafhopper on Soleil bean plant, contact and/or systemic
Procedure: (§1) Test Compounds were formulated using a solution containing 10% acetone, 90% water and 300 ppm Activator 90® non-ionic surfactant (Loveland Products, Loveland, Colo., USA). The formulated Compounds were applied in 1 mL of liquid through an atomizer nozzle positioned 1.27 cm (0.5 inches) above the top of each test unit. Test Compounds were sprayed at the rates indicated, and each test was replicated three times.
For evaluating control of potato leafhopper (Empoasca fabae (Harris)) through contact and/or systemic means, the test unit consisted of a small open container with a 5-6-day-old Soleil bean plant (primary leaves emerged) inside. White sand was added to the top of the soil, and one of the primary leaves was excised prior to application of the test Compound.
Test Compounds were formulated and sprayed at 250, 50 and 10 ppm. After spraying of the formulated test Compound, the test units were allowed to dry for 1 hour before they were post-infested with 5 potato leafhoppers (18-to-21-day-old adults). A black, screened cap was placed on the top of the test unit, and the test units were held for 6 days in a growth chamber at 20° C. and 70% relative humidity. Each test unit was then visually assessed for insect mortality.

[4] = system: Western Flower Thrips (Frankliniella occidentalis (Pergande)); test: Test G: control of Western Flower Thrips on Soleil bean plant, contact and/or systemic
Procedure: as §1
For evaluating control of the Western Flower Thrips (Frankliniella occidentalis (Pergande)) through contact and/or systemic means, the test unit consisted of a small open container with a 5-7-day-old Soleil bean plant inside.
Test Compounds were formulated and sprayed at 250, 50, 10 and 2 ppm. After spraying, the test units were allowed to dry for 1 hour, and then ˜60 thrips (adults and nymphs) were added to each unit. A black, screened cap was placed on top, and the test units were held for 6 days at 25° C. and 45-55% relative humidity. Each test unit was then visually assessed for plant damage and insect mortality.

SMILES | control efficacy: feeding damage (40% or less feeding damage and/or 100% mortality) ([1]; sprayed at 2 ppm) | control efficacy: feeding damage (40% or less feeding damage and/or 100% mortality) ([1]; sprayed at 10 ppm) | control efficacy: feeding damage (40% or less feeding damage and/or 100% mortality) ([2]; sprayed at 2 ppm) | control efficacy: feeding damage (40% or less feeding damage and/or 100% mortality) ([2]; sprayed at 10 ppm) | mortality ([3]; sprayed at 10 ppm) | mortality ([3]; sprayed at 50 ppm) | control efficacy: plant damage (30% or less plant damage and/or 100% mortality) ([4]; sprayed at 10 ppm) | control efficacy: plant damage (30% or less plant damage and/or 100% mortality) ([4]; sprayed at 2 ppm)
CCN1OCC(NC(=O)c2ccc(C3=NOC(c4cc(Cl)c(F)c(Cl)c4)(C(F)(F)F)C3)c3ccsc23)C1=O (mixture of isomers) [Compound 22] | ≤ 40% | ≤ 40% | ≤ 40% | ≤ 40% | at least 80% | at least 80% | – | –
O=C(NC1C[S+]([O-])C1)c1ccc(C2=NOC(c3ccc(F)c(C(F)(F)F)c3)(C(F)(F)F)C2)c2ccoc12 (single isomer, unassigned) [Compound 70] | ≤ 40% | – | ≤ 40% | – | at least 80% | – | – | –
CSCCNC(=O)c1ccc(C2=NOC(c3cc(Cl)c(F)c(Cl)c3)(C(F)(F)F)C2)c2ccoc12 (stereo not drawn) [Compound 1] | ≤ 40% | ≤ 40% | ≤ 40% | ≤ 40% | at least 80% | at least 80% | – | –
CSCC(C)NC(=O)c1ccc(C2=NOC(c3cc(Cl)c(F)c(Cl)c3)(C(F)(F)F)C2)c2ccoc12 (stereo not drawn) [Compound 9] | – | – | – | – | – | at least 80% | – | –
CSCCNC(=O)c1ccc(C2=NOC(c3cc(Cl)c(F)c(Cl)c3)(C(F)(F)F)C2)c2occc12 (stereo not drawn) [Compound 23] | ≤ 40% | ≤ 40% | – | ≤ 40% | – | at least 80% | – | –
CSCC(C)NC(=O)c1ccc(C2=NOC(c3cc(Cl)c(F)c(Cl)c3)(C(F)(F)F)C2)c2occc12 (stereo not drawn) [Compound 24] | – | ≤ 40% | – | ≤ 40% | – | at least 80% | – | –
CCN1OCC(NC(=O)c2ccc(C3=NOC(c4cc(Cl)c(F)c(Cl)c4)(C(F)(F)F)C3)c3occc23)C1=O (stereo not drawn) [Compound 29] | ≤ 40% | ≤ 40% | ≤ 40% | ≤ 40% | at least 80% | at least 80% | – | –
O=C(NC1CC1)c1ccc(C2=NOC(c3cc(Cl)c(F)c(Cl)c3)(C(F)(F)F)C2)c2ccoc12 (stereo not drawn) [Compound 38] | ≤ 40% | ≤ 40% | ≤ 40% | ≤ 40% | at least 80% | – | – | –
CC(CC#N)NC(=O)c1ccc(C2=NOC(c3cc(Cl)c(F)c(Cl)c3)(C(F)(F)F)C2)c2ccoc12 (stereo not drawn) [Compound 54] | ≤ 40% | ≤ 40% | ≤ 40% | ≤ 40% | – | – | ≤ 30% | –
O=C(NC1CSC1)c1ccc(C2=NOC(c3cc(Cl)c(F)c(Cl)c3)(C(F)(F)F)C2)c2ccoc12 (stereo not drawn) [Compound 55, 4-(5-(3,5-dichloro-4-fluorophenyl)-5-(trifluoromethyl)-4,5-dihydroisoxazol-3-yl)-N-(thietan-3-yl)benzofuran-7-carboxamide] | ≤ 40% | ≤ 40% | ≤ 40% | ≤ 40% | – | – | ≤ 30% | ≤ 30%
O=C(NC1CS(=O)(=O)C1)c1ccc(C2=NOC(c3cc(Cl)c(F)c(Cl)c3)(C(F)(F)F)C2)c2ccoc12 (stereo not drawn) [Compound 56, 4-[5-(3,5-dichloro-4-fluorophenyl)-4,5-dihydro-5-(trifluoromethyl)-3-isoxazolyl]-N-(1,1-dioxido-3-thietanyl)-7-benzofurancarboxamide] | ≤ 40% | ≤ 40% | ≤ 40% | ≤ 40% | – | – | ≤ 30% | ≤ 30%
NC(=O)c1ccc(C2=NOC(c3cc(Cl)c(F)c(Cl)c3)(C(F)(F)F)C2)c2ccsc12 (stereo not drawn) [Compound 77] | ≤ 40% | ≤ 40% | ≤ 40% | ≤ 40% | – | – | ≤ 30% | –
CC(=O)NCc1ccc(C2=NOC(c3cc(Cl)cc(Cl)c3)(C(F)(F)F)C2)c2ccoc12 (stereo not drawn) [Compound 79, N-[[4-[5-(3,5-dichlorophenyl)-5-(trifluoromethyl)-4H-1,2-oxazol-3-yl]-1-benzofuran-7-yl]methyl]acetamide] | ≤ 40% | ≤ 40% | ≤ 40% | ≤ 40% | – | – | ≤ 30% | ≤ 30%
CC(=O)NCc1ccc(C2=NOC(c3cc(Cl)c(F)c(Cl)c3)(C(F)(F)F)C2)c2ccoc12 (stereo not drawn) [Compound 83, N-[[4-[5-(3,5-dichloro-4-fluorophenyl)-4,5-dihydro-5-(trifluoromethyl)-3-isoxazolyl]-7-benzofuranyl]methyl]acetamide] | ≤ 40% | ≤ 40% | ≤ 40% | ≤ 40% | – | – | ≤ 30% | ≤ 30%
C[C@H](NC(=O)c1ccc(C2=NOC(c3cc(Cl)cc(Cl)c3)(C(F)(F)F)C2)c2sccc12)C(N)=O (stereo partly drawn) [Compound 101, N-[(1S)-2-amino-1-methyl-2-oxo-ethyl]-7-[5-(3,5-dichlorophenyl)-5-(trifluoromethyl)-4H-isoxazol-3-yl]benzothiophene-4-carboxamide] | ≤ 40% | ≤ 40% | ≤ 40% | ≤ 40% | – | – | ≤ 30% | ≤ 30%
CCN1OCC(NC(=O)c2ccc(C3=NOC(c4cc(Cl)c(F)c(Cl)c4)(C(F)(F)F)C3)c3sccc23)C1=O (stereo not drawn) [Compound 107] | ≤ 40% | ≤ 40% | ≤ 40% | ≤ 40% | – | – | ≤ 30% | ≤ 30%
CCN1OC[C@H](NC(=O)c2ccc(C3=NOC(c4cc(Cl)cc(Cl)c4)(C(F)(F)F)C3)c3sccc23)C1=O (stereo partly drawn) [Compound 108] | ≤ 40% | ≤ 40% | – | ≤ 40% | – | – | ≤ 30% | –
CC(CC#N)NC(=O)c1ccc(C2=NOC(c3cc(Cl)cc(Cl)c3)(C(F)(F)F)C2)c2sccc12 (stereo not drawn) [Compound 122] | ≤ 40% | – | ≤ 40% | – | – | – | – | ≤ 30%
CC(C#N)NC(=O)c1ccc(C2=NOC(c3cc(Cl)cc(Cl)c3)(C(F)(F)F)C2)c2sccc12 (stereo not drawn) [Compound 126] | ≤ 40% | ≤ 40% | ≤ 40% | ≤ 40% | – | – | ≤ 30% | ≤ 30%

Reference: US20210309652A1, “ISOXAZOLINE COMPOUNDS FOR CONTROLLING INVERTEBRATE PESTS” (priority 2018, published 2021)
